From the supplement of paper PMC12889115
The other results are listed elsewhere or left out. Values are raw readings; no control value is given beside them.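 Primary screen: polymyxin B was added at a level permeabilizing Salmonella outer membranes while sparing inner membranes. DMSO wells, both with and without polymyxin B, established maximum growth. Plate-to-plate variation meant each plate was ranked on its own, and the lowest-OD600 compounds were selected as hits.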

Tested on: Salmonella enterica serovar Typhimurium SL1344
Assay: bacterial growth OD600 after 18 h with compound and polymyxin B; higher = more bacterial growth (less inhibition)
Settings: 50 µM, Mueller-Hinton broth

Row | Structure (SMILES) | bacterial growth OD600 (polymyxin B 0.75 µg/mL) | bacterial growth OD600 (polymyxin B 1 µg/mL)
1 | COc1ccc(CNC(=O)C2CCCN(c3nc(C)c4ccc(S(C)(=O)=O)cc4n3)C2)c(OC)c1 (stereo unspecified) | 0.862 | –
2 | COCCN1C(=O)CC(CC(=O)N2CCN(Cc3ccccc3)CC2)(c2ccccc2F)C1=O (stereo unspecified) | 0.819 | –
3 | Fc1cccc(CN2CCOc3ccc(CN4CCC(Oc5cccnc5)CC4)cc3C2)c1F | 0.007 | –
4 | CCOC(=O)C1(Cc2cccc(OC)c2)CCCN(Cc2ccc(NC(C)=O)cc2)C1 (stereo unspecified) | – | 0.792
5 | O=C(Nc1ccnn1C1CCN(C(=O)c2cc3ccccc3o2)CC1)C1CCOC1 (stereo unspecified) | – | 0.861
6 | CC1(C)CC(NC(=O)c2coc(COc3cccc4cccnc34)n2)CCO1 (stereo unspecified) | 0.859 | –
7 | COCCCN1C(=O)CC(CC(=O)N2CCCCC2c2cccnc2)(c2ccccc2Cl)C1=O (stereo unspecified) | 0.515 | –
8 | Cc1cccc(N2CCC(C3CCN(Cc4cccnc4)CC3)C2)n1 (stereo unspecified) | 0.773 | –
9 | O=C(Nc1cccc(N2CCC(NCc3cccc(OC(F)(F)F)c3)CC2)c1)C1CC1 | 0.823 | –
10 | COc1ccc(CC(=O)NCC2CCCN(C(=O)c3ccc4c(c3)OCO4)C2)cc1 (stereo unspecified) | – | 0.935
11 | Cc1c(C(=O)N(C)Cc2cccc3ncccc23)sc2ncnc(NC[C@H]3C[C@@H]4C=C[C@H]3C4)c12 | 0.559 | –
12 | COC(=O)C(CCSC)NC(=O)c1ccc(OC2CCN(C(=O)C3CC3)CC2)cc1 (stereo unspecified) | – | 1.15
13 | COc1ccc2c(c1)OC(C)CN(CCNC(=O)c1cc(Cl)ccc1F)C2 (stereo unspecified) | 0.771 | –
14 | C(=C\c1ccccc1)/CN1CCCC(Nc2ccccc2)C1 (stereo unspecified) | – | 1.18
15 | COc1ccc(CNC(=O)CCC2CCCN(Cc3nccn3C)C2)c(OC)c1 (stereo unspecified) | – | 0.997
16 | COCCN1C(=O)CC(CC(=O)N2CCCC(OCc3ccccc3)C2)(c2cccc(OC)c2)C1=O (stereo unspecified) | 0.602 | –

Row | Structure (SMILES) | bacterial growth OD600 (polymyxin B 0.75 µg/mL) | bacterial growth OD600 (polymyxin B 1 µg/mL)
17 | CC(=O)N1CCC(C(=O)N2CCc3[nH]nc(-c4ccc(Cl)cc4)c3C2)CC1 | 0.867 | –
18 | Cc1c(Cl)cccc1NC(=O)N1CCCC(CNC(=O)c2cccnc2)C1 (stereo unspecified) | 0.762 | –
19 | COc1ccccc1CN1CCC(C(=O)Nc2cccc(-c3cscn3)c2)CC1 | – | 0.939
20 | COc1cccc(CN2CCN(C(=O)CCC3(Cc4ccc(C)cc4)CCC(=O)N3)CC2=O)c1 (stereo unspecified) | 0.963 | –
21 | COc1cccc(CC(C2CCN(C(=O)CCc3ccccc3)CC2)N(C)C(=O)c2ccsc2)c1 (stereo unspecified) | 0.591 | –
22 | CCC(=O)N[C@@H]1c2ccccc2C2(CCN(C(=O)c3sccc3C)CC2)[C@H]1OCc1cccnc1 | 0.72 | –
23 | CC(=O)Nc1ccnn1C1CCN(Cc2ccc(-c3ccccc3)cc2)CC1 | 0.007 | –
24 | O=C(CC(F)(F)F)NC1CC(=O)N(Cc2ccccc2C(F)(F)F)C1 (stereo unspecified) | – | 0.791
25 | COc1cc(CN2CCC(n3nccc3NC(=O)c3ccccc3)CC2)cc2c1OCO2 | – | 0.921
26 | O=S(=O)(c1cccnc1)N1CCc2onc(-c3ccc(F)c(F)c3)c2C1 | 0.876 | –
27 | COc1cccc(CCC2CCCN(C(=O)c3n[nH]c4c3CCC4)C2)c1 (stereo unspecified) | 0.387 | –
28 | CN(Cc1ccc2nsnc2c1)C(=O)c1cc(COc2cccc(F)c2)[nH]n1 | – | 0.554
29 | COc1ccccc1CN1CCC(c2nc(-c3ccncc3)ncc2-c2cccc(C)c2)CC1 | 0.784 | –
30 | CC1(C)Cc2nc(N3CCC(O)CC3)ncc2C(NC2CCCC2)C1 (stereo unspecified) | 0.887 | –
31 | O=C(c1csnn1)N1CCc2[nH]nc(-c3ccc(-c4ccccc4)cc3)c2C1 | 0.561 | –

An excerpt from above in order of length of the SMILES, largest number first.
Row | Structure (SMILES) | bacterial growth OD600 (polymyxin B 0.75 µg/mL) | bacterial growth OD600 (polymyxin B 1 µg/mL)
21 | COc1cccc(CC(C2CCN(C(=O)CCc3ccccc3)CC2)N(C)C(=O)c2ccsc2)c1 (stereo unspecified) | 0.591 | –
27 | COc1cccc(CCC2CCCN(C(=O)c3n[nH]c4c3CCC4)C2)c1 (stereo unspecified) | 0.387 | –
30 | CC1(C)Cc2nc(N3CCC(O)CC3)ncc2C(NC2CCCC2)C1 (stereo unspecified) | 0.887 | –
